# Reference: publication PMC10643145, “Structure and activation of the RING E3 ubiquitin ligase TRIM72 on the membrane” (Nature Structural & Molecular Biology, 2023)
# Results are given in words; binding and its absence hold for the method and conditions named. Some entries that bind do so weakly or less than the wild type.
# B1: mouse TRIM72 R^3E (R368E, R369E, R371E) (protein, UniProt Q1XH17 1-477)
# chain: MSAAPGLLRQELSCPLCLQLFDAPVTAECGHSFCRACLIRVAGEPAADGTVACPCCQAPTRPQALSTNLQLSRLVEGLAQVPQGHCEEHLDPLSIYCEQDRTLVCGVCASLGSHRGHRLLPAAEAQARLKTQLPQQKMQLQEACMRKEKTVAVLEHQLVEVEETVRQFRGAVGEQLGKMRMFLAALESSLDREAERVRGDAGVALRRELSSLNSYLEQLRQMEKVLEEVADKPQTEFLMKFCLVTSRLQKILSESPPPARLDIQLPVISDDFKFQVWKKMFRALMPALEELTFDPSSAHPSLVVSSSGRRVECSDQKAPPAGEDTRQFDKAVAVVAQQLLSQGEHYWEVEVGDKPRWALGVMAADASEEGELHAVPSQGLWLLGLRDGKILEAHVEAKEPRALRTPERPPARIGLYLSFADGVLAFYDASNPDVLTPIFSFHERLPGPVYPIFDVCWHDKGKNAQPLLLVGPEQEQA
# B2: mouse TRIM72 ΔH3 (deletion of residues 272–281) (protein, UniProt Q1XH17)
# chain: MSAAPGLLRQELSCPLCLQLFDAPVTAECGHSFCRACLIRVAGEPAADGTVACPCCQAPTRPQALSTNLQLSRLVEGLAQVPQGHCEEHLDPLSIYCEQDRTLVCGVCASLGSHRGHRLLPAAEAQARLKTQLPQQKMQLQEACMRKEKTVAVLEHQLVEVEETVRQFRGAVGEQLGKMRMFLAALESSLDREAERVRGDAGVALRRELSSLNSYLEQLRQMEKVLEEVADKPQTEFLMKFCLVTSRLQKILSESPPPARLDIQLPVISDDRALMPALEELTFDPSSAHPSLVVSSSGRRVECSDQKAPPAGEDTRQFDKAVAVVAQQLLSQGEHYWEVEVGDKPRWALGVMAADASRRGRLHAVPSQGLWLLGLRDGKILEAHVEAKEPRALRTPERPPARIGLYLSFADGVLAFYDASNPDVLTPIFSFHERLPGPVYPIFDVCWHDKGKNAQPLLLVGPEQEQA
# B3: mouse TRIM72 K^2D (K460D, K462D) (protein, UniProt Q1XH17 1-477)
# chain: MSAAPGLLRQELSCPLCLQLFDAPVTAECGHSFCRACLIRVAGEPAADGTVACPCCQAPTRPQALSTNLQLSRLVEGLAQVPQGHCEEHLDPLSIYCEQDRTLVCGVCASLGSHRGHRLLPAAEAQARLKTQLPQQKMQLQEACMRKEKTVAVLEHQLVEVEETVRQFRGAVGEQLGKMRMFLAALESSLDREAERVRGDAGVALRRELSSLNSYLEQLRQMEKVLEEVADKPQTEFLMKFCLVTSRLQKILSESPPPARLDIQLPVISDDFKFQVWKKMFRALMPALEELTFDPSSAHPSLVVSSSGRRVECSDQKAPPAGEDTRQFDKAVAVVAQQLLSQGEHYWEVEVGDKPRWALGVMAADASRRGRLHAVPSQGLWLLGLRDGKILEAHVEAKEPRALRTPERPPARIGLYLSFADGVLAFYDASNPDVLTPIFSFHERLPGPVYPIFDVCWHDDGDNAQPLLLVGPEQEQA
# B4: mouse TRIM72 wild type (tripartite motif-containing protein 72) (natural protein, UniProt Q1XH17 1-477, looked up)
# chain: MSAAPGLLRQELSCPLCLQLFDAPVTAECGHSFCRACLIRVAGEPAADGTVACPCCQAPTRPQALSTNLQLSRLVEGLAQVPQGHCEEHLDPLSIYCEQDRTLVCGVCASLGSHRGHRLLPAAEAQARLKTQLPQQKMQLQEACMRKEKTVAVLEHQLVEVEETVRQFRGAVGEQLGKMRMFLAALESSLDREAERVRGDAGVALRRELSSLNSYLEQLRQMEKVLEEVADKPQTEFLMKFCLVTSRLQKILSESPPPARLDIQLPVISDDFKFQVWKKMFRALMPALEELTFDPSSAHPSLVVSSSGRRVECSDQKAPPAGEDTRQFDKAVAVVAQQLLSQGEHYWEVEVGDKPRWALGVMAADASRRGRLHAVPSQGLWLLGLRDGKILEAHVEAKEPRALRTPERPPARIGLYLSFADGVLAFYDASNPDVLTPIFSFHERLPGPVYPIFDVCWHDKGKNAQPLLLVGPEQEQA
# notes: TRIM72 (MG53), Mus musculus, wild type, full length; Tight dimer in solution by SEC-MALS; higher-order assembly only on PS liposomes; also called TRIM72 WT; MG53; source: E. coli BL21(DE3), purified (AC, IEX, SEC); not shown: His6, N-terminal, cleaved; MBP, N-terminal, cleaved
# Key:
# [1] = molecular target: mouse TRIM72 R^3E (R368E, R369E, R371E) (mouse) (UniProt Q1XH17); assay: cross-linking; time course; preincubation with small liposomes (30 mol% DPPS, 70 mol% DOPC) in DPBS at room temperature for 30 min, then 20 μM BMOE; SDS-PAGE, Coomassie; both purified
# [2] = molecular target: mouse TRIM72 ΔH3 (deletion of residues 272–281) (mouse) (UniProt Q1XH17); assay: as above
# [3] = molecular target: mouse TRIM72 K^2D (K460D, K462D) (mouse) (UniProt Q1XH17); assay: as above
# [4] = molecular target: mouse TRIM72 wild type (tripartite motif-containing protein 72) (mouse) (UniProt Q1XH17); assay: cross-linking; oxidizing conditions by the addition of H2O2, without PS liposomes; higher-order oligomers of the dimer; both purified
binder,measurement,setting,value
B1,binding,[1],binds weakly
B2,binding,[2],binds weakly
B3,binding,[3],binds weakly
B4,binding,[4],no binding (condition: without PS liposomes)
